# Data as given in the supplement of paper PMC10735217.
# Counter-ions that a name gives are not always drawn. This is one part of the list. Repeats in this data set agree poorly, so a single value says little.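 The human kidney-derived cells carry a stably integrated construct of eight TEAD-binding elements driving luciferase, read by luminescence in a drug-repurposing library screen. A compound counts as a hit when its signal is more than five robust Z scores above the plate mean.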
# Test system: HEK293A TEAD-LUC reporter
# Experiment: TEAD-luciferase reporter activity (YAP activation), robust Z score vs plate; higher = stronger YAP/TEAD activation
# Details: 24 h
Structure (SMILES),TEAD-luciferase reporter activity (compound concentration: 200 nM),TEAD-luciferase reporter activity (compound concentration: 2 uM),TEAD-luciferase reporter activity (compound concentration: 10 uM)
O=C(CO)N1CCC(c2[nH]nc(-c3ccc(Cl)cc3F)c2-c2ccncn2)CC1,inactive: -1.09,inactive: -1.05,inactive: 2.39
COc1cccc(OCc2cc(C)ccn2)c1-c1ccc2c(c1)CCNCC2,inactive: -0.931,inactive: -0.566,inactive: 1.94
CCN(CC)CCCN1c2ccccc2Sc2ccc(Cl)cc21 [Chlorproethazine HCl],inactive: -0.523,inactive: -0.0718,inactive: 0.66
CN1CCN(C2CCN(C(=O)[C@H](CC(=O)N3CCC(N4CCc5ccccc5NC4=O)CC3)Cc3cc(Cl)c(N)c(C(F)(F)F)c3)CC2)CC1,inactive: -0.892,inactive: -0.955,inactive: -0.575
CC(C)(C)NC[C@@H](O)COc1ccccc1C1CCCC1 [penbutolol],inactive: -1.74,inactive: -0.566,inactive: 3.36
COc1ccc2c(c1)[C@]1(CC1c1ccc3c(/C=C/c4ccc(CN5C[C@@H](C)O[C@@H](C)C5)cc4)n[nH]c3c1)C(=O)N2 (stereo partly specified),inactive: 0.152,inactive: -0.0429,inactive: 2.41
O=[N+]([O-])c1nccn1CC(O)CN1CCCCC1 (stereo unspecified) [Pimonidazole],inactive: 1.47,inactive: -0.484,inactive: -0.0898
CO/N=C1/CN(c2nc3c(cc2F)c(=O)c(C(=O)O)cn3C2CC2)CC1CN (stereo unspecified) [Gemifloxacin mesilate],inactive: 1.23,inactive: -0.233,inactive: -0.267
Oc1cc(O)c2c(c1)O[C@H](c1ccc3c(c1)OC(c1ccccc1)(c1ccccc1)O3)[C@@H](O)C2,inactive: -0.789,inactive: -0.34,inactive: -1.51
CNC(=O)c1ccc2c(c1)CCO[C@H]2CCN1CCN(c2ccc(OC)cc2)CC1,inactive: -0.993,inactive: 3.78,inactive: -0.674
NC(=O)c1ccc(F)c2c1C[C@@H](N(C1CCC1)C1CCC1)CO2 [Robalzotan tartrate hydrate],inactive: -1.11,inactive: 0.862,inactive: -1.2
C#CCNC(=O)C1CCCN(c2nc3ncccc3o2)C1 (stereo unspecified),inactive: -0.00101,–,inactive: -0.189
COCC12CN(S(=O)(=O)c3ccc4cc(Cl)ccc4c3)CC(=O)N1CC1(CCN(c3ccncc3)CC1)O2 (stereo unspecified),inactive: 0.561,inactive: -0.11,inactive: -0.59
COc1cc2c(cc1OC)CCN(CCc1ccc(N)cc1)CC2 [verilopam],inactive: -0.978,inactive: -0.831,inactive: 0.577

# A different layout for some results above.
Structure (SMILES) | TEAD-luciferase reporter activity (compound concentration: 200 nM) | TEAD-luciferase reporter activity (compound concentration: 2 uM) | TEAD-luciferase reporter activity (compound concentration: 10 uM)
CCN(CC)CCCN1c2ccccc2Sc2ccc(Cl)cc21 [Chlorproethazine HCl] | inactive: -0.523 | inactive: -0.0718 | inactive: 0.66
CN1CCN(C2CCN(C(=O)[C@H](CC(=O)N3CCC(N4CCc5ccccc5NC4=O)CC3)Cc3cc(Cl)c(N)c(C(F)(F)F)c3)CC2)CC1 | inactive: -0.892 | inactive: -0.955 | inactive: -0.575
